According to PMC9985635:
These are yes or no findings as the source states them, for the method shown. In cells and extracts the contact can be indirect. Some results given as binding are weak or reduced against the parent protein; the word gives no strength.

Sequences of proteins named here, by UniProt entry; tags and fusion partners are left off.
UniProt Q04206: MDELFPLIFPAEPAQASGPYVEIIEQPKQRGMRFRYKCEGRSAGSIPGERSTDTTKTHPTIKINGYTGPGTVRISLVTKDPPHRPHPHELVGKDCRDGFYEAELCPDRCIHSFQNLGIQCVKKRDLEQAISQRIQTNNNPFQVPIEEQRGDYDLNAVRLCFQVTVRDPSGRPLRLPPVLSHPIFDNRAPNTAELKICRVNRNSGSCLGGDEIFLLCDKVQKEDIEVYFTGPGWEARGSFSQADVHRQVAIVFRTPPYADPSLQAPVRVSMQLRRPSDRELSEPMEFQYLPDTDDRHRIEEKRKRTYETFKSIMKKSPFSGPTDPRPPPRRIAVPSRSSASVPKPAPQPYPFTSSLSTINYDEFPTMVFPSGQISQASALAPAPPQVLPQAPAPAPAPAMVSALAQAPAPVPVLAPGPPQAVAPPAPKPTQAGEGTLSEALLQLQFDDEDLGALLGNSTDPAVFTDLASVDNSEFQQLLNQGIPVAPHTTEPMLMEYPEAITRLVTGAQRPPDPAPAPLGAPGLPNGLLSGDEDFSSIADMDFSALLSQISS

Assays:
[1] = target: T1, RB, wild type (co-IPs of Supplementary Figs. 15J-M and 16L-P; overexpressed where stated) (UniProt P06400); test: co-IP; cells with LKB1, CDK4 or RB constructs overexpressed (cell line and baits not shown), with or without palbociclib; Cell Lysis Buffer for Western & IP, antibody overnight at 4 °C, protein A/G agarose beads 2 h; immunoblot
T1 sequence: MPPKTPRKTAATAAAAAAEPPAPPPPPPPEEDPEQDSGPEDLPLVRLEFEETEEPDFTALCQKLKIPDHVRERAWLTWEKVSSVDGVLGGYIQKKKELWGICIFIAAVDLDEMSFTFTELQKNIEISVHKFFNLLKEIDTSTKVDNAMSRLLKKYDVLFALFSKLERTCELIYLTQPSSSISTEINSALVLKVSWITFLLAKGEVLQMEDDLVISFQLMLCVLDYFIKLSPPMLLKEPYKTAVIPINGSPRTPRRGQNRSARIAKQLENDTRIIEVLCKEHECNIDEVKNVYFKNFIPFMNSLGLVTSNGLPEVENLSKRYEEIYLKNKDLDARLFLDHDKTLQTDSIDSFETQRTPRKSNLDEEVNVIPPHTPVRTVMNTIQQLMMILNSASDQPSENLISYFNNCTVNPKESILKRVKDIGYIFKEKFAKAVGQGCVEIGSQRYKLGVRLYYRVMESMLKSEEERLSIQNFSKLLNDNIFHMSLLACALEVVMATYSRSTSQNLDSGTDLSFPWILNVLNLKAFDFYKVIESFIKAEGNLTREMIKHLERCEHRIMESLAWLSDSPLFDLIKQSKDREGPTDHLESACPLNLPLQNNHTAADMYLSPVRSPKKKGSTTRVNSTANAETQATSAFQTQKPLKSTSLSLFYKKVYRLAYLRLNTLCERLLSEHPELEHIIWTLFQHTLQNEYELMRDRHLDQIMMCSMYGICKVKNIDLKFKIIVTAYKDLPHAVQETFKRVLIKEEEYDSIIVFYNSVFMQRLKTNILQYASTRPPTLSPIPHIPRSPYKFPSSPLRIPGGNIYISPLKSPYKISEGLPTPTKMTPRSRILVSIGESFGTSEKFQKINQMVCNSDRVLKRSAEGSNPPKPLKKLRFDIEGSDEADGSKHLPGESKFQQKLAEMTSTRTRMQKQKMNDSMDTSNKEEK

[2] = target: T2, LKB1 (H1299 cells expressing intact LKB1) (human (endogenous in H1299)) (UniProt Q15831); test: co-IP; H1299 cells expressing intact LKB1; Cell Lysis Buffer for Western & IP, antibody overnight at 4 °C, protein A/G agarose beads 2 h; immunoblot
T2 sequence: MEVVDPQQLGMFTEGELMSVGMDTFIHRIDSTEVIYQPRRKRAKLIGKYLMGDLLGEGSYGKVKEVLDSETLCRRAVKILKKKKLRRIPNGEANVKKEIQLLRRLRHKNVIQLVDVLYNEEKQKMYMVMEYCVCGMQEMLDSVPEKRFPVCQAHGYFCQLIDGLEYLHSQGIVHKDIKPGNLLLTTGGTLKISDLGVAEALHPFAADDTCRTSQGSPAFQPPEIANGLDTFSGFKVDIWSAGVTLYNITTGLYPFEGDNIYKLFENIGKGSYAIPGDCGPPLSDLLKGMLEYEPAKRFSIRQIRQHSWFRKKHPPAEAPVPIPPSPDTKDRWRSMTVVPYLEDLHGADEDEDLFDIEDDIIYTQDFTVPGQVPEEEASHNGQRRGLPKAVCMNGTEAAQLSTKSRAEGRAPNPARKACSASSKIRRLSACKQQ

[3] = target: T3, LKB1, wild type, overexpressed or reconstituted (co-IPs of Supplementary Figs. 15J-M and 16L-P) (UniProt Q15831); test: co-IP; cells with LKB1, CDK4 or RB constructs overexpressed (cell line and baits not shown), with or without palbociclib; Cell Lysis Buffer for Western & IP, antibody overnight at 4 °C, protein A/G agarose beads 2 h; immunoblot
T3 sequence: T2 sequence

In the case of p65 (from UniProt Q04206 1-551), the binding [1] is reported as “binds”.

B1: retinoblastoma protein RB (H1299 cells) (protein, UniProt P06400 1-928)
chain: T1 sequence
B1 was tested, and the binding [2] was “binds”.

B2: RB, wild type (co-IPs of Supplementary Figs. 15J-M and 16L-P; overexpressed where stated) (protein, UniProt P06400 1-928)
chain: T1 sequence
With B2 the binding [3] was “binds”.
